Some of the results follow.
These sequences were tested against OsWRKY34 (Oryza sativa, UniProt Q0JBA9 1-250) (assay: protein-binding microarray (RPBM); PBS, 2% BSA, 51.3 ng/ul salmon testes DNA, 50 uM zinc acetate, 200 nM TF, 25 C, 1 h; high values mean tight binding). Conditions: protein: recombinant; tags: N-terminal polyhistidine and DsRed monomer fusion (pET32a); label: CyDye5-dUTP incorporated in the synthesized complementary strand; 3' TTTTT single-stranded linker to array surface; dsDNA, one strand shown.
Outline: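 The binding signal is fluorescence intensity per array feature (arbitrary units). Readings came from an Axon 4000B scanner after a washed, 2% BSA-blocked, double-stranded custom Agilent array had been incubated for 1 h at 25 °C with 200 nM protein and 50 µM zinc acetate. The protein was a Ni–NTA-purified transcription factor fused N-terminally to polyhistidine and DsRed, expressed in E. coli BL21-CodonPlus.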

Amino acid sequences for entries named in this document (tags omitted).
UniProt Q0JBA9, entry or part of it: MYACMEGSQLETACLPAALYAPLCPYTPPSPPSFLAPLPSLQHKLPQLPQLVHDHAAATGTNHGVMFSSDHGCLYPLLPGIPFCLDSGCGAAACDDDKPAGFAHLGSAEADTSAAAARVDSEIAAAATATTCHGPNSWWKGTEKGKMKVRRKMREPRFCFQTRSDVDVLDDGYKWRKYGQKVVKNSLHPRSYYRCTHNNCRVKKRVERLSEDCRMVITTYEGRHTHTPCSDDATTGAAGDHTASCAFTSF

Sequence	binding signal
TGTCATAGGTTTTAATGATGTTTGGTGTTTTCTGCTGGTACGGAGTCACCTAGTGCAG	8300 fluorescence intensity (a.u.)
GCCTAGCGGGAGGGGTGTTTAGTTTTGACCATAAGGTTCCCGGAGTCACCTAGTGCAG	10600 fluorescence intensity (a.u.)
TCTTTTCTTCCCGGAGATGTTTATGCATTAACAACGTAACCGGAGTCACCTAGTGCAG	9520 fluorescence intensity (a.u.)
ATTATTCCTCTTTTCCCTCCTACTCTGGGCAAATCTATTTCGGAGTCACCTAGTGCAG	9220 fluorescence intensity (a.u.)
ATGTTGTTTCCCGTGGTCGTCCTTTCGCCGTGTTCGGTTGCGGAGTCACCTAGTGCAG	11400 fluorescence intensity (a.u.)
TGCTCCGTCGCCACGCTCGCGCTCCTCTACTCTGTCCGCGCGGAGTCACCTAGTGCAG	13800 fluorescence intensity (a.u.)
TAGTATATACATGCTTGAATTGCTTGGTTGCCACATCTTTCGGAGTCACCTAGTGCAG	9520 fluorescence intensity (a.u.)
TCCATAGATTCGCATATGCTTCCTTGACATCTCCACAGAACGGAGTCACCTAGTGCAG	12600 fluorescence intensity (a.u.)
CTCGTGCCGAGCAGCGTGTACGCCTCACTCCGCCTCATCACGGAGTCACCTAGTGCAG	8050 fluorescence intensity (a.u.)
TCCGATCGGCTACCACCCGCCGCCACCACCACCACCACAACGGAGTCACCTAGTGCAG	10500 fluorescence intensity (a.u.)
CGAGCTCCTTCGATTCGATCCACCTCGTCTCGGTTCCTCTCGGAGTCACCTAGTGCAG	8880 fluorescence intensity (a.u.)
AGCAATGGCGTCTCTACTCGGACTCCTCTTCTCTTCTCTTCGGAGTCACCTAGTGCAG	13000 fluorescence intensity (a.u.)
TATTTATTTTTTTGCTGGTTGTTTTGTTTGCTTTTCAATTCGGAGTCACCTAGTGCAG	14100 fluorescence intensity (a.u.)
CCTGTTTAGTTCATCTGTTCATTTCACATTAAGTTAAATTCGGAGTCACCTAGTGCAG	9520 fluorescence intensity (a.u.)
GTTCTTCTCCAACTCACCCTGTTTCTCTCACCAAATGCCCCGGAGTCACCTAGTGCAG	8810 fluorescence intensity (a.u.)
TGTTCGAATTTTTTGCTTCCTTGATTTCTTTTGCGAGCAGCGGAGTCACCTAGTGCAG	8320 fluorescence intensity (a.u.)
CCAAGCGCCCGCCGCCTCGCTCCCTCCTCTTCCTTGACCTCGGAGTCACCTAGTGCAG	35200 fluorescence intensity (a.u.)
ACGTGAATTAATACTGCATTATTCCTGCTTGCTTTTTTTTCGGAGTCACCTAGTGCAG	10100 fluorescence intensity (a.u.)
GGGTTGGGTGCTTACCATGCCGCCGGTGAGGTAGCGGAGGCGGAGTCACCTAGTGCAG	8420 fluorescence intensity (a.u.)
CCGTTGACTTTTTAACTAATGTTTAACCATTCATTTTATTCGGAGTCACCTAGTGCAG	28900 fluorescence intensity (a.u.)
ATCTATGTTTTTCTGCGGGCCGGGTTGGTTTGTTTCCTACCGGAGTCACCTAGTGCAG	10300 fluorescence intensity (a.u.)

Quoted from the listing:
CCGTTGACTTTTTAACTAATGTTTAACCATTCATTTTATTCGGAGTCACCTAGTGCAG | binding signal: 28900 fluorescence intensity (a.u.)
TGTCATAGGTTTTAATGATGTTTGGTGTTTTCTGCTGGTACGGAGTCACCTAGTGCAG | binding signal: 8300 fluorescence intensity (a.u.)

(cont.)

Sequence	binding signal
CCTCGAGCACTCGAGTATCTCCGCCGTCCTTTCCGCGTCACGGAGTCACCTAGTGCAG	9660 fluorescence intensity (a.u.)
CCCGATTCTTTGTTGCACTGGTAAGCATATTCATCCAAAACGGAGTCACCTAGTGCAG	8440 fluorescence intensity (a.u.)
TTTAGTAATCCCAACAGATGCAATTTTTTTTGGTTCGTCCCGGAGTCACCTAGTGCAG	8180 fluorescence intensity (a.u.)
TTTGAATGATATATGGATCCCACATTTTTTTCTAGTTTTACGGAGTCACCTAGTGCAG	8390 fluorescence intensity (a.u.)
GCTAAAAGAGTTTCCCATATTTCTGCTACCTATTCTTTTCCGGAGTCACCTAGTGCAG	8330 fluorescence intensity (a.u.)
ATGCCCGCCGCCGCTCGCCGCTCTCGACCCGGTGCTCCGCCGGAGTCACCTAGTGCAG	9630 fluorescence intensity (a.u.)
CCCACTCCACCACCCCACCCCGCATGGCCCGGATCTAATACGGAGTCACCTAGTGCAG	8020 fluorescence intensity (a.u.)
ATTCTGATTGGGTGTGGTTGGTTTGATTTTCTGTTAAGCACGGAGTCACCTAGTGCAG	11700 fluorescence intensity (a.u.)
TTTTTTTGCTTTCTATCAGTTTATTCGGGGCAGTTCTTTCCGGAGTCACCTAGTGCAG	14800 fluorescence intensity (a.u.)
TCACCGCCGTCCGCAGCGATACACCACCGCGATCTCCTCGCGGAGTCACCTAGTGCAG	10400 fluorescence intensity (a.u.)
GCGCTCTCGCCTCTTGCTCGCTCGCTCGCTCGCTGCGCCGCGGAGTCACCTAGTGCAG	9860 fluorescence intensity (a.u.)
GAAAATACCCGGCCCGCGAGTTGGATCCTTTTCCAAAAGCCGGAGTCACCTAGTGCAG	8850 fluorescence intensity (a.u.)
TCTCTCTCTCGATTTTCTCATCTCCACTGCTCCACGCTTCCGGAGTCACCTAGTGCAG	11800 fluorescence intensity (a.u.)
TTGGCATCGACACGGTCTCCAAAACACAACTTTAACTTCTCGGAGTCACCTAGTGCAG	8720 fluorescence intensity (a.u.)
GTTCTTTCGTCGTGGATTGTTTCTAGCTTTCTGCAAGTGACGGAGTCACCTAGTGCAG	15600 fluorescence intensity (a.u.)
TTTTCTCATTCTCACTTACATGTGGGCCCAATAACTTTTTCGGAGTCACCTAGTGCAG	8340 fluorescence intensity (a.u.)
TCATCTGGTGTAGGCATTAACTGCAACTCGAGTCATTTTCCGGAGTCACCTAGTGCAG	8260 fluorescence intensity (a.u.)
TGAGGGGTCTTAATATTTTGATAATTATTCGTTAGCGTATCGGAGTCACCTAGTGCAG	8550 fluorescence intensity (a.u.)
GGCCGGCGAGGTGAGGGTACGCCGCGACGGCCCTGAGGAGCGGAGTCACCTAGTGCAG	8400 fluorescence intensity (a.u.)
AAAGTTCATGGCTACTGCTCTTTTGCTGTATGGTTTACATCGGAGTCACCTAGTGCAG	9120 fluorescence intensity (a.u.)
GTCTACTACCTGAAACTCTCAGTCAGTCCGAAATTAAACACGGAGTCACCTAGTGCAG	9000 fluorescence intensity (a.u.)

Source: paper PMC7819943, “Rice protein-binding microarrays: a tool to detect cis-acting elements near promoter regions in rice”
